SMILES strings stand for the structures. Structures can show the parent of a compound that is named as a salt. Several reference drugs read as weak here; read low effects with care.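 OVCAR3, described as chemosensitive, is one of three high-grade serous ovarian cancer lines that differ in chemosensitivity. Toxicity was scaled from DMSO vehicle wells to fully lysed wells; scores came from fitted multi-dose response curves, and the authors treated scores above 5 as indicating drug sensitivity.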

Holding throughout (assay): drug sensitivity score (DSS2, cytotoxicity, CellTox Green); higher = more cytotoxic / more sensitive; extreme values may be limits of the assay
Conditions in all cases: 72 h; doses 0.5, 1, 5 µM

Assay [1] relates to Kuramochi.
Assay [2] deals with OVCAR3.
The subject of assay [3] is OVCAR4.

In the case of `CC[C@@H]1CN(C(=O)NCC(F)(F)F)C[C@@H]1c1cnc2cnc3[nH]ccc3n12` [Upadacitinib], the drug sensitivity score in assay [1], in assay [2] and in assay [3] was 0 DSS throughout.
Regarding `COc1cc2ncnc(Nc3ccc(F)c(Cl)c3)c2cc1OCCCN1CCOCC1` [Gefitinib], the drug sensitivity score in assay [1], in assay [2] and in assay [3] was 0 DSS in each case.
With `CC(C(=O)O)c1ccc2c(c1)Cc1cccnc1O2` (centres undefined) [Pranoprofen], the drug sensitivity score in assay [1], in assay [2] and in assay [3] was 0 DSS in each case.
`CN(Cc1cnc2nc(N)nc(N)c2n1)c1ccc(C(=O)N[C@@H](CCC(=O)O)C(=O)O)cc1` [Methotrexate]: the drug sensitivity score in assay [1], in assay [2] and in assay [3] was 0 DSS each time.
In the case of `CO[C@H]1C[C@@H]2CC[C@@H](C)[C@@](O)(O2)C(=O)C(=O)N2CCCC[C@H]2C(=O)O[C@H]([C@H](C)C[C@@H]2CC[C@@H](O)[C@H](OC)C2)CC(=O)[C@H](C)/C=C(\C)[C@@H](O)[C@@H](OC)C(=O)[C@H](C)C[C@H](C)/C=C/C=C/C=C/1C` [Rapamycin], the drug sensitivity score in assay [1], in assay [2] and in assay [3] was 0 DSS each time.
Take `C[C@H]1Oc2cc(cnc2N)-c2c(nn(C)c2C#N)CN(C)C(=O)c2ccc(F)cc21` [Lorlatinib]: the drug sensitivity score in assay [1], in assay [2] and in assay [3] was 0 DSS in each case.
Consider `CC(C)Cn1cnc2c(N)nc3ccccc3c21` [Imiquimod (hydrochloride)], for which the drug sensitivity score in assay [1], in assay [2] and in assay [3] was 0 DSS each time.
With `Cc1ccccc1C(=O)Nc1ccc(C(=O)N2CCCC(O)c3cc(Cl)ccc32)c(C)c1` (centres undefined) [Tolvaptan], the drug sensitivity score in assay [1], in assay [2] and in assay [3] was 0 DSS in each case.
For `CCn1c(=O)c(-c2cc(NC(=O)Nc3ccccc3)c(F)cc2Br)cc2cnc(NC)cc21` [Ripretinib], the drug sensitivity score in assay [1], in assay [2] and in assay [3] was 0 DSS throughout.
Take `CCCCc1oc2ccccc2c1C(=O)c1cc(I)c(OCCN(CC)CC)c(I)c1` [Amiodarone (hydrochloride)]: the drug sensitivity score in assay [1], in assay [2] and in assay [3] was 0 DSS each time.
`C[C@H]1C[C@H]2[C@@H]3CCC4=CC(=O)C=C[C@]4(C)[C@H]3C(=O)C[C@]2(C)[C@@]1(O)C(=O)CO` [Meprednisone]: the drug sensitivity score in assay [1], in assay [2] and in assay [3] was 0 DSS in each case.
Consider `O=C(c1ccc(OCCN2CCCCC2)cc1)c1c(-c2ccc(O)cc2)sc2cc(O)ccc12` [Raloxifene (hydrochloride)], for which the drug sensitivity score in assay [1], in assay [2] and in assay [3] was 0 DSS each time.
For the compound `COc1ccc2cc([C@H](C)C(=O)O)ccc2c1` [Naproxen], the drug sensitivity score in assay [1], in assay [2] and in assay [3] was 0 DSS throughout.
Regarding `CCOc1cc(C(C)(C)C)ccc1C1=N[C@@](C)(c2ccc(Cl)cc2)[C@@](C)(c2ccc(Cl)cc2)N1C(=O)N1CCN(CC(=O)N2CCOCC2)CC1` [P53 and MDM2 proteins-interaction-inhibitor (chiral)], the drug sensitivity score worked out at 0 DSS in assay [1], 0.9 DSS in assay [2] and 0 DSS in assay [3].
On to `N=C(N)NC(=O)c1nc(Cl)c(N)nc1N` [Amiloride hydrochloride dihydrate], for which the drug sensitivity score in assay [1], in assay [2] and in assay [3] was 0 DSS each time.
For `CCc1c2c(nc3ccc(OC(=O)N4CCC(N5CCCCC5)CC4)cc13)-c1cc3c(c(=O)n1C2)COC(=O)[C@]3(O)CC` [Irinotecan (hydrochloride)], the drug sensitivity score in assay [1], in assay [2] and in assay [3] was 0 DSS in each case.
Regarding `CC(C)C(=O)Nc1ccc([N+](=O)[O-])c(C(F)(F)F)c1` [Flutamide], the drug sensitivity score in assay [1], in assay [2] and in assay [3] was 0 DSS throughout.
Turning to `CCOc1cc(/C=C2/C(=O)N(c3ccccc3)N=C2C)cc(Cl)c1OCC(=O)OC`, the drug sensitivity score in assay [1], in assay [2] and in assay [3] was 0 DSS each time.
With `Cc1ccc(NC(=O)c2ccc(CN3CCN(C)CC3)cc2)cc1Nc1nc(-c2cccnc2)cs1` [Masitinib (mesylate)], the drug sensitivity score in assay [1], in assay [2] and in assay [3] was 0 DSS each time.
As for `C[C@H](CCC(=O)NCCS(=O)(=O)O)[C@H]1CC[C@H]2[C@@H]3[C@H](O)C[C@@H]4C[C@H](O)CC[C@]4(C)[C@H]3CC[C@]12C` [Taurochenodeoxycholic acid (sodium salt)], the drug sensitivity score in assay [1], in assay [2] and in assay [3] was 0 DSS each time.
`CC(C)(C#N)c1cc(Cn2cncn2)cc(C(C)(C)C#N)c1` [Anastrozole]: the drug sensitivity score in assay [1], in assay [2] and in assay [3] was 0 DSS throughout.
For `CCn1cc(C(=O)O)c(=O)c2ccc(C)nc21` [Nalidixic acid], the drug sensitivity score in assay [1], in assay [2] and in assay [3] was 0 DSS in each case.
Consider `CN1CCN(c2ccc(C(=O)Nc3n[nH]c4ccc(Cc5cc(F)cc(F)c5)cc34)c(NC3CCOCC3)c2)CC1` [Entrectinib], for which the drug sensitivity score in assay [1] was determined as 0.3 DSS; in assay [2], 0.1 DSS; in assay [3], 0 DSS.
`O=C(O)CC(O)(CC(=O)O)C(=O)O` [Citric acid]: the drug sensitivity score in assay [1], in assay [2] and in assay [3] was 0 DSS in each case.
Regarding `CNC(=O)c1cc(Oc2ccc(NC(=O)Nc3ccc(Cl)c(C(F)(F)F)c3)cc2)ccn1` [Sorafenib (Tosylate)], the drug sensitivity score in assay [1], in assay [2] and in assay [3] was 0 DSS throughout.
In the case of `CC(C)C[C@H](NC(=O)[C@@H](COC(C)(C)C)NC(=O)[C@H](Cc1ccc(O)cc1)NC(=O)[C@H](CO)NC(=O)[C@H](Cc1c[nH]c2ccccc12)NC(=O)[C@H](Cc1cnc[nH]1)NC(=O)[C@@H]1CCC(=O)N1)C(=O)N[C@@H](CCCNC(=N)N)C(=O)N1CCC[C@H]1C(=O)NNC(N)=O` [Goserelin (acetate)], the drug sensitivity score in assay [1], in assay [2] and in assay [3] was 0 DSS throughout.
On to `CC(C)NC(=O)COc1cccc(-c2nc(Nc3ccc4[nH]ncc4c3)c3ccccc3n2)c1` [Belumosudil], for which the drug sensitivity score in assay [1] came out at 0 DSS; in assay [2], 0.2 DSS; in assay [3] it was 1.9 DSS.
Take `COC(=O)C1=C(C)NC(C)=C(C(=O)OCCN(C)Cc2ccccc2)C1c1cccc([N+](=O)[O-])c1` (centres undefined) [Nicardipine (hydrochloride)]: the drug sensitivity score in assay [1], in assay [2] and in assay [3] was 0 DSS each time.
As for `COc1cc([C@@H]2c3cc4c(cc3[C@H](O)[C@H]3COC(=O)[C@H]23)OCO4)cc(OC)c1OC` [Podofilox], the drug sensitivity score is 2.6 DSS in assay [1], 7.7 DSS in assay [2] and 2.1 DSS in assay [3].
For `COc1c(C)c2c(c(O)c1C/C=C(\C)CCC(=O)O)C(=O)OC2` [Mycophenolic acid], in that order: 0 DSS, 0 DSS and 0 DSS.
The like results for `CCOC(=O)C1=C(C)NC(C)=C(C(=O)OCC)C1c1ccccc1/C=C/C(=O)OC(C)(C)C` [Lacidipine] were, in that order, 0 DSS, 0 DSS and 0 DSS.
Take `COc1cc(C)c(/C=C/C(C)=C/C=C/C(C)=C/C(=O)O)c(C)c1C` [Acitretin]: the drug sensitivity score in assay [1], in assay [2] and in assay [3] was 0 DSS throughout.
On to `Cc1ccc(NC(=O)c2ccc(CN3CCN(C)CC3)cc2)cc1Nc1nc(-c2cccnc2)cs1` [Masitinib], for which the drug sensitivity score in assay [1], in assay [2] and in assay [3] was 0 DSS throughout.
`Nc1nc(Cl)nc2c1ncn2[C@@H]1O[C@H](CO)[C@@H](O)[C@@H]1F` [Clofarabine]: the drug sensitivity score in assay [1], in assay [2] and in assay [3] was 0 DSS in each case.
Take `C[C@@H]1O[C@@H](O[C@H]2C[C@@H](O)[C@]3(CO)[C@H]4[C@H](O)C[C@]5(C)[C@@H](C6=CC(=O)OC6)CC[C@]5(O)[C@@H]4CC[C@]3(O)C2)[C@H](O)[C@H](O)[C@H]1O` [Ouabain (Octahydrate)]: the drug sensitivity score in assay [1] turned out to be 4.3 DSS; in assay [2] it was 4.5 DSS; in assay [3] it was 6.1 DSS.
With `Cc1cc(C2CCCCC2)n(O)c(=O)c1` [Ciclopirox], the drug sensitivity score in assay [1], in assay [2] and in assay [3] was 0 DSS throughout.
For the compound `CCCCN(CCCC)CC(O)c1cc(Cl)cc2c1-c1ccc(Cl)cc1/C2=C/c1ccc(Cl)cc1` (centres undefined) [Lumefantrine], the drug sensitivity score in assay [1], in assay [2] and in assay [3] was 0 DSS in each case.
For the compound `O=C1c2cccc(O)c2C(=O)c2c(O)cccc21` [Danthron], the drug sensitivity score in assay [1], in assay [2] and in assay [3] was 0 DSS throughout.

These data come from the supplement of paper PMC12593923.
